{"source": "PubChem BioAssay AID504808, Drosophila RNAi Screening Center – 2011", "assay": "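Fly genes required to hold E2F transcription in check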 (primary screen)", "cells": "Drosophila S2 cells", "reagent": "long dsRNA against Drosophila genes", "measurement": "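Dual luciferase plate measurements; E2F-specific signal taken as firefly over Renilla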", "reading the numbers": "E2F firefly: higher = more E2F reporter activity; Renilla normaliser: higher = more normaliser reporter signal", "hit rule": "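a knock-down counted as active when the firefly/Renilla E2F signal rose above 50%, a threshold chosen arbitrarily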", "note": "In all, the deposit lists about 21,000 reagents; below is an unselected part of those that have a named target and a result. Over the whole deposit, 18 (0.084%) were called active. 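Raw counts without plate normalisation, one of two replicates; the ratio scores behind the calls were not deposited.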 The record does not give: the amount of reagent, the time to read-out."}
{"Target gene":"Mtp (GeneID 35362)","dsRNA":"DRSC03216","E2F firefly, rep 1":71258,"Renilla normaliser, rep 1":3070,"activity call":"inactive"}
{"Target gene":"CG4563 (GeneID 37901)","dsRNA":"DRSC04474","E2F firefly, rep 1":1.10e5,"Renilla normaliser, rep 1":4587,"activity call":"inactive"}
{"Target gene":"SNCF (GeneID 39496)","dsRNA":"DRSC10115","E2F firefly, rep 1":1.28e5,"Renilla normaliser, rep 1":7647,"activity call":"inactive"}
{"Target gene":"eyg (GeneID 39419)","dsRNA":"DRSC11344","E2F firefly, rep 1":71766,"Renilla normaliser, rep 1":3982,"activity call":"inactive"}
{"Target gene":"Oatp26F (GeneID 33927)","dsRNA":"DRSC02149","E2F firefly, rep 1":1.49e5,"Renilla normaliser, rep 1":4715,"activity call":"inactive"}
{"Target gene":"Oatp26F (GeneID 33927)","dsRNA":"DRSC02272","E2F firefly, rep 1":1.71e5,"Renilla normaliser, rep 1":5947,"activity call":"inactive"}
{"Target gene":"Oatp26F (GeneID 33927)","dsRNA":"DRSC02695","E2F firefly, rep 1":1.62e5,"Renilla normaliser, rep 1":5299,"activity call":"inactive"}
{"Target gene":"Mcad (GeneID 38864)","dsRNA":"DRSC09871","E2F firefly, rep 1":81607,"Renilla normaliser, rep 1":3497,"activity call":"inactive"}

Next part; the last 2 above are carried over.
{"Target gene":"Oatp26F (GeneID 33927)","dsRNA":"DRSC02695","E2F firefly, rep 1":1.62e5,"Renilla normaliser, rep 1":5299,"activity call":"inactive"}
{"Target gene":"Mcad (GeneID 38864)","dsRNA":"DRSC09871","E2F firefly, rep 1":81607,"Renilla normaliser, rep 1":3497,"activity call":"inactive"}
{"Target gene":"Larp4B (GeneID 38399)","dsRNA":"DRSC08192","E2F firefly, rep 1":81721,"Renilla normaliser, rep 1":4068,"activity call":"inactive"}
{"Target gene":"CG8372 (GeneID 34121)","dsRNA":"DRSC03086","E2F firefly, rep 1":92552,"Renilla normaliser, rep 1":4096,"activity call":"inactive"}
{"Target gene":"Tsp74F (GeneID 39995)","dsRNA":"DRSC10508","E2F firefly, rep 1":1.60e5,"Renilla normaliser, rep 1":7953,"activity call":"inactive"}
{"Target gene":"mld (GeneID 2768685)","dsRNA":"DRSC13681","E2F firefly, rep 1":72919,"Renilla normaliser, rep 1":2515,"activity call":"inactive"}
{"Target gene":"mld (GeneID 2768685)","dsRNA":"DRSC14622","E2F firefly, rep 1":61887,"Renilla normaliser, rep 1":3828,"activity call":"inactive"}
{"Target gene":"CG16888 (GeneID 34789)","dsRNA":"DRSC02541","E2F firefly, rep 1":96919,"Renilla normaliser, rep 1":4380,"activity call":"inactive"}
{"Target gene":"CG6465 (GeneID 41274)","dsRNA":"DRSC16046","E2F firefly, rep 1":80166,"Renilla normaliser, rep 1":4183,"activity call":"inactive"}
{"Target gene":"E(spl)mdelta-HLH (GeneID 43150)","dsRNA":"DRSC16698","E2F firefly, rep 1":1.28e5,"Renilla normaliser, rep 1":7324,"activity call":"inactive"}
{"Target gene":"CG31029 (GeneID 318562)","dsRNA":"DRSC15422","E2F firefly, rep 1":1.08e5,"Renilla normaliser, rep 1":5944,"activity call":"inactive"}
{"Target gene":"CG18249 (GeneID 40964)","dsRNA":"DRSC15318","E2F firefly, rep 1":72300,"Renilla normaliser, rep 1":3552,"activity call":"inactive"}
{"Target gene":"mRpL49 (GeneID 32242)","dsRNA":"DRSC19908","E2F firefly, rep 1":1.03e5,"Renilla normaliser, rep 1":5807,"activity call":"inactive"}
